Values quoted from earlier work as cited in article PMC3597608, “Yellow Fluorescent Protein-Based Assay to Measure GABAA Channel Activation and Allosteric Modulation in CHO-K1 Cells” (PLoS ONE, 2013).

Tested on: α2β3γ2 ion channel subtype
Design: method as in PMID 19090692
Details: read-out: GABA EC50; HEK 293 cells, membrane potential assay; cited from earlier work

Q: For `NCCCC(=O)O` [GABA, γ-aminobutyric acid], which EC50 is on record?
A: The EC50 was 2.2 µM.
